{"source": "patent US20230330254A1", "about": "(Regeneron Pharmaceuticals, Inc., priority 2022, published 2023)", "assay": "general procedure: Fmoc solid-phase peptide synthesis; Rink amide MBHA resin (loading: 0.5-0.6 mmol/g); HATU/DIPEA", "key": {"[1]": {"details": "late stage modification step, analytical HPLC, 220 nm, PDA detector"}, "[2]": {"details": "whole synthesis, analytical HPLC, 220 nm, PDA detector"}}, "data": [{"substance": "COT- G4- (R)Ser-P9", "values": [{"measurement": "conjugation yield", "setting": "conjugation step", "value": 36.34, "unit": "%"}, {"measurement": "final purity (method not given)", "setting": "conjugation step, analytical HPLC, 220 nm, PDA detector", "value": 99.72, "unit": "%"}]}, {"substance": "benzyl 2,2-dimethyl-4,7,10,13-tetraoxo-3-oxa-5,8,11,14-tetraazahexadecan-16-oate", "values": [{"measurement": "step yield", "setting": "coupling step", "value": 85.00, "unit": "% yield"}, {"measurement": "crude purity (method not given)", "setting": "coupling step, analytical HPLC, 220 nm, PDA detector", "value": 95, "unit": "% purity"}]}, {"substance": "(S)-1-(9H-fluoren-9-yl)-3,6,9,12,15-pentaoxo-5-((((2R,3R,4S,5R,6R)-3,4,5-triacetoxy-6-(acetoxymethyl)tetrahydro-2H-pyran-2-yl)oxy)methyl)-2-oxa-4,7,10,13,16-pentaazaoctadecan-18-oic acid", "values": [{"measurement": "step yield", "setting": "late stage modification step", "value": 59.81, "unit": "% yield"}, {"measurement": "crude purity (method not given)", "setting": "[1]", "value": 95, "unit": "% purity"}]}, {"substance": "benzyl 2-(2-(2-(2-aminoacetamido)acetamido)acetamido)acetate hydrochloride", "values": [{"measurement": "step yield", "setting": "late stage modification step", "value": 69.77, "unit": "% yield"}, {"measurement": "crude purity (method not given)", "setting": "[1]", "value": 70, "unit": "% purity"}]}, {"substance": "(3S,6S,9S,12S,15S,21S)-21-((2H-tetrazol-5-yl)methyl)-3-(((S)-1-(((S)-1-amino-5-(3,5-dimethylphenyl)-1-oxopentan-2-yl)amino)-3-(4′-(4-azidobutoxy)-2′-ethyl-[1,1′-biphenyl]-4-yl)-1-oxopropan-2-yl)carbamoyl)-12-(2-fluorobenzyl)-9,15-bis((R)-1-hydroxyethyl)-6-(hydroxymethyl)-28-(1H-imidazol-5-yl)-12,24,24-trimethyl-5,8,11,14,17,20,23,26-octaoxo-4,7,10,13,16,19,22,25-octaazaoctacosan-1-oic acid", "values": [{"measurement": "isolated yield", "setting": "whole synthesis", "value": 2.63, "unit": "% yield"}, {"measurement": "final HPLC purity", "setting": "[2]", "value": 98.48, "unit": "% purity"}, {"measurement": "final purity (method not given)", "setting": "[2]", "value": 91, "unit": "% purity"}]}]}
